Experiments:
[1] = system: TNBC cell line MDA-MB-231; test: Cell viability assay, MDA-MB-231; format: cell-based; conditions: selectivity index
[2] = system: breast cancer cell line MCF-7; test: Cell viability assay (MTS), MCF-7; format: cell-based, human; conditions: selectivity index MCF-10A vs MCF-7; SI=(IC50 normal−IC50 cancer)/IC50 cancer
Experimental: In an embodiment, the cell growth inhibition and IC50 values of the synthesised and isolated chromene-based compounds were determined as part of the evaluation of the antiproliferative activity of the isolated agents. A complete study on the structure-activity relationship was performed for all the synthesised compounds. The antiproliferative activity against MCF-7 breast cancer cell lines were analysed. […] The non-neoplastic cell line MCF-10A was also used to determine the selectivity of the compounds for the tumour cells. For compounds with an IC50 value (concentration required to reduce cell viability by 50%) higher than 20 μM, the IC50 value was not determined. Selectivity index (SI) was calculated in order to evaluate the cytotoxicity of the tested compounds.
(§1) In an embodiment, three human breast cancer cell lines Hs578T, MDA-MB-468 and MCF-7, and a normal breast cell line MCF-10A, were obtained from ATCC (American Type Culture Collection). The cancer cell lines were cultured in Dulbecco's modified Eagle medium, 4.5 g/l glucose (DMEM, Gibco) supplemented with 10% heating inactivated Fetal Bovine Serum (FBS, Gibco) and 1% antibiotic solution (Penicillin-Streptomycin, Gibco). The normal cell line was cultured in Dulbecco's Modified Eagle Medium: Nutrient Mixture F-12 (DMEM/F12, Gibco) supplemented with 5% heating inactivated FBS (Gibco), 1% antibiotic solution (Penicillin-Streptomycin, Gibco), 1% steroid hormone (Hydrocortisone, Sigma-Aldrich), 0.1% peptide hormone (Insulin, Sigma-Aldrich) and 0.01% protein complex (Cholera Toxin, Gibco). Two distinct human acute myeloid leukemia (AML) cell lines, HL-60 (FAB M2) and KG-1 (erythroleukemia-FAB M6), and one human lymphoblastic leukemia (ALL) cell line, Jurkat (T cell type), were also used. These three cell lines were obtained from German Collection of Microorganisms and Cell cultures (DMSZ®, Deutsche Sammlung von Mikroorganismen and Zellkulturen in German). Cells were cultured in RPMI 1640 medium (Biochrom®-Merck Millipore) supplemented with 10% heating inactivated FBS (Biochrom®-Merck Millipore) and 1% antibiotic/antimitotic mixture (Invitrogen®). Three human glioblastoma (GBM) cell line models, two established and commercially available cell lines (U87MG and GAMG, kind gift from Rui M. Reis) and one primary GBM culture (GLIB) were also used. GBM cells were cultures in DMEM (Biochrom-Merck Millipore), all supplemented with 10% FBS. The Renal cell carcinoma cell lines A498, 786-O, Caki-2 and HK2 were obtained from ATCC. The cancer cell line A498 was cultured in MEM medium (Biochrom®-Merck Millipore), 786-O was cultured in RPMI 1640 medium (Biochrom®-Merck Millipore), Caki-2 was cultured in Mc Coys medium (Biochrom®-Merck Millipore) and HK2 was cultured in RPMI 1640 medium (Biochrom®-Merck Millipore). All the media were supplemented with 10% heat inactivated FBS (Biochrom®-Merck Millipore) and 1% antibiotic/antimitotic mixture (Invitrogen®). All cells were grown in a humidified incubator at 37° C. and 5% CO2. For all assays, DMSO (Dimethyl Sulfoxide, Sigma-Aldrich) controls were used.
In an embodiment, cell viability assays were performed. MCF-7, Hs578T and MCF-10A cells were plated in triplicate in 96-multiwell culture plates, at 3000 cells […], or 5000 cells […] for MDA-MB-468 (100 μL/well). The cells were then allowed to adhere in complete medium, over a period of 18-20 hours. Cells were subsequently treated with 7 different concentrations (from 0.1 to 40 μM or 5 to 60 μM) of compounds or control in fresh medium. HL-60, KG-1 and Jurkat cell lines were plated in 96-multiwell culture plates at 50.000 cells/100 μL per well and treated with different concentrations (from 0.001 to 2 μM) of the compounds described (or control). Cells were plated, in triplicate, at an initial density of 2000 cells/well for GAMG, 4000 cells/well for GL18 and 6000 cells/well for U87MG, in 96-well plates, and allowed to adhere for 18-20 hours. […]

[3] = system: renal carcinoma cell line A498; test: Cell viability (sulforhodamine B), A498; format: cell-based; conditions: selectivity index
Experimental: (§2) In an embodiment, the antiproliferative activity of the compounds was further determined against renal carcinoma cell lines and non-neoplastic kidney cell line.
as §1
(§3) In an embodiment, cell viability assays were performed. MCF-7, Hs578T and MCF-10A cells were plated in triplicate in 96-multiwell culture plates, at 3000 cells per mL, or 5000 cells per mL for MDA-MB-468 (100 μL/well). The cells were then allowed to adhere in complete medium, over a period of 18-20 hours. Cells were subsequently treated with 7 different concentrations (from 0.1 to 40 μM or 5 to 60 μM) of compounds or control in fresh medium. HL-60, KG-1 and Jurkat cell lines were plated in 96-multiwell culture plates at 50.000 cells/100 μL per well and treated with different concentrations (from 0.001 to 2 μM) of the compounds described (or control). Cells were plated, in triplicate, at an initial density of 2000 cells/well for GAMG, 4000 cells/well for GL18 and 6000 cells/well for U87MG, in 96-well plates, and allowed to adhere for 18-20 hours. Cells were then treated with different concentrations of the compounds (0.005 to 100 μM) or with control. A498 and 786-O cells were plated at 2000 cells per mL, Caki-2 cells were plated at 3000 cells per mL and HK2 cells were plated at 2000 cells per mL in triplicate, in 96-multiwell culture plates (100 μL/well), and allowed to adhere over a period of 18-20 hours in complete medium. The cells were then treated with 7 different concentrations (from 0.1 to 40 μM or 5 to 60 μM) of compounds or control in fresh medium. […]

[4] = system: renal carcinoma cell line 786-O; test: Cell viability (sulforhodamine B), 786-O; format: cell-based; conditions: selectivity index
Experimental: as §2, §1, §3

TNBC cell line Hs578t = test: Cell viability assay (MTS), Hs578t; format: cell-based, human; conditions: selectivity index
Text: (§4) In an embodiment, for a comparison study, monomers and respective dimers were selected and further evaluated in Hs578t and MDA-MB-468 breast cell lines. […] These cell lines correspond to the basal-like subtype of breast cancer, included in the known triple negative subtype, since they are negative for Estrogen receptor (ER), progesterone receptor (PR) and Human epidermal growth factor receptor 2 (HER2) molecular markers. The clinical behaviour of these breast cancer subtype is very aggressive and there is still no specific molecular therapy available.
as §1
In an embodiment, cell viability assays were performed. MCF-7, Hs578T and MCF-10A cells were plated in triplicate in 96-multiwell culture plates, at 3000 cells […], or 5000 cells […] for MDA-MB-468 (100 μL/well). The cells were then allowed to adhere in complete medium, over a period of 18-20 hours. Cells were subsequently treated with 7 different concentrations (from 0.1 to 40 μM or 5 to 60 μM) of compounds or control in fresh medium. HL-60, KG-1 and Jurkat cell lines were plated in 96-multiwell culture plates at 50.000 cells/100 μL per well and treated with different concentrations (from 0.001 to 2 μM) of the compounds described (or control). Cells were plated, in triplicate, at an initial density of 2000 cells/well for GAMG, 4000 cells/well for GL18 and 6000 cells/well for U87MG, in 96-well plates, and allowed to adhere for 18-20 hours. Cells were then treated with different concentrations of the compounds (0.005 to 100 μM) or with control. […]

[5] = system: renal carcinoma cell line Caki-2; test: Cell viability (sulforhodamine B), Caki-2; format: cell-based; conditions: selectivity index
Experimental: as §2, §1, §3

[6] = system: TNBC cell line MDA-MB-468; test: Cell viability assay (MTS), MDA-MB-468; format: cell-based, human; conditions: selectivity index
Text: as §4
as §1, with “For all assays, DMSO (Dimethyl Sulfoxide, Sigma-Aldrich) controls were used.” left out

Row | Compound | SI MDA-MB-231 vs MCF-10A [1] | SI [2] | SI HK2 vs A498 [3] | SI HK2 vs 786-O [4] | SI Hs578t vs MCF-10A (TNBC cell line Hs578t) | SI HK2 vs Caki-2 [5] | SI MDA-MB-468 vs MCF-10A [6]
1 | COc1cccc(-c2nc3c([nH]2)Cc2cccc(OC)c2O3)c1O [Compound M955] | >0.5 | >6 | – | – | – | – | –
2 | Oc1ccccc1-c1nc2c([nH]1)Cc1ccccc1O2 [Compound M1159] | >0.6 | >7 | ns | 0.847 | – | – | –
3 | COc1ccc2c(c1)Cc1[nH]c(-c3cc(OC)ccc3O)nc1O2 [Compound M1220] | – | >4 | – | – | – | – | –
4 | COc1cccc2c1Oc1nc(-c3cccc(F)c3)[nH]c1C2 [MC349, 2-(3-fluorophenyl)-5-methoxy-3,9-dihydrochromeno[2,3-d]imidazoles] | 0.9 | 2.0 | 1.35 | 4.89 | 2.6 | 4.97 | –
5 | COc1cccc2c1Oc1nc(-c3ccccc3)[nH]c1C2 [MC350, 5-methoxy-2-phenyl-3,9-dihydrochromeno[2,3-d]imidazoles] | 2.4 | 10.4 | 24.85 | 40.91 | – | 53.57 | –
6 | COc1cccc2c1Oc1nc(-c3cccc(O)c3)[nH]c1C2 [MC359, 3-(5-methoxy-3,9-dihydrochromeno[2,3-d]imidazol-2-yl)phenol] | 1.5 | 1.4 | 1.16 | 0.65 | 0.9 | 1.26 | –
7 | COc1cccc2c1Oc1nc(-c3ccccc3F)[nH]c1C2C1c2cccc(OC)c2Oc2nc(-c3ccccc3F)[nH]c21 (stereo not shown) [MC369, 2,2′-bis(2-fluorophenyl)-5,5′-dimethoxy-1,1,9,9′-tetrahydro-9,9′-bichromeno[2,3-]imidazoles] | >6 | >76 | – | 14.57 | – | 6.57 | –
8 | COc1cccc2c1Oc1nc(-c3ccc(F)cc3)[nH]c1C2C1c2cccc(OC)c2Oc2nc(-c3ccc(F)cc3)[nH]c21 (stereo not shown) [MC406, 2,2′-bis(4-fluorophenyl)-5,5′-dimethoxy-1,1,9,9′-tetrahydro-9,9′-bichromeno[2,3-]imidazoles] | 38.9 | 62.6 | ns | 2.69 | 238.8 | 0.74 | 38.7
9 | COc1cccc2c1Oc1nc(-c3ccccc3F)[nH]c1C2 [MC407, 2-(2-fluorophenyl)-5-methoxy-3,9-dihydrochromeno[2,3-d]imidazoles] | 1.4 | 8.8 | ns | 0.54 | – | 1.39 | –
10 | COc1cccc2c1Oc1nc(-c3cc(F)cc(F)c3O)[nH]c1C2 [MC410, 2,4-difluoro-6-(5-methoxy-3,9-dihydrochromeno[2,3-d]imidazol-2-yl)phenol] | – | >7 | – | 50.78 | – | 1.71 | –
11 | COc1ccccc1-c1nc2c([nH]1)Cc1cccc(OC)c1O2 [MC411, 5-methoxy-2-(2-methoxyphenyl)-3,9-dihydrochromeno[2,3-]imidazoles] | 2.8 | 3.0 | – | 0.27 | −0.2 | 0.20 | –
12 | COc1cccc2c1Oc1nc(-c3ccc(Cl)cc3)[nH]c1C2 [MC412, 2-(4-chlorophenyl)-5-methoxy-3,9-dihydrochromeno[2,3-d]imidazoles] | 0.04 | 3.0 | 4.60 | 49.97 | 0.8 | 40.82 | –
13 | COc1cccc2c1Oc1nc(-c3ccc(O)cc3)[nH]c1C2 [MC413, 4-(5-methoxy-3,9-dihydrochromeno[2,3-d]imidazol-2-yl)phenol] | >30 | >17 | 9.70 | 13.09 | >19 | 25.92 | –
14 | CCOc1ccc(-c2nc3c([nH]2)Cc2cccc(OC)c2O3)cc1 [MC415, 2-(4-ethoxyphenyl)-5-methoxy-3,9-dihydrochromeno[2,3-d]imidazoles] | 0.3 | 0.2 | 43.24 | 22.71 | 2.3 | 83.52 | –
15 | COc1ccc(-c2nc3c([nH]2)Cc2cccc(OC)c2O3)c(Br)c1O [MC416, 2-bromo-6-methoxy-3-(5-methoxy-3,9-dihydrochromeno[2,3-]imidazol-2-yl)phenol] | – | 0.86 | – | 0.50 | -0.4 | 0.86 | –
